# Results from one PubChem assay

Source: PubChem BioAssay AID504749 (NCATS, 2011).

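A panel of P. falciparum strains inside erythrocytes is exposed to compounds for three days, then a DNA-binding dye reports the amount of parasite DNA. Each compound was titrated across a series from about 0.000037 to 29 µM. The number is the fitted AC50, the concentration giving a half-maximal change in signal; a lower value means higher potency, whether the curve shows a decrease or an increase. Calls follow the curve class and fit quality: every row here is inconclusive, covering signal-raising curves and weak, poorly fitted, partial or highest-dose-only inhibition curves.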

Values are in nM. All entries here are filed as inconclusive. These entries are mostly ones the record files as inconclusive; other results of the assay are not listed here. Potencies fitted to partial, single-point or poorly fitting curves are rough.

structure,tested on / at,fitted potency (nM),curve as filed
CC(C)C[C@H](NC(=O)[C@@H](O)[C@H](N)Cc1ccccc1)C(=O)O,PC49,11220,"inhibitor, single point"
CC(C)C[C@H](NC(=O)[C@@H](O)[C@H](N)Cc1ccccc1)C(=O)O,CP192,6012,"inhibitor, partial curve, poor fit"
CC(C)C[C@H](NC(=O)[C@@H](O)[C@H](N)Cc1ccccc1)C(=O)O,CP266,15101,"inhibitor, single point"
CC(C)C[C@H](NC(=O)[C@@H](O)[C@H](N)Cc1ccccc1)C(=O)O,CP329,6746,"inhibitor, partial curve, poor fit"
CC(C)C[C@H](NC(=O)[C@@H](O)[C@H](N)Cc1ccccc1)C(=O)O,HB3,5623,"inhibitor, partial curve"
CC(C)C[C@H](NC(=O)[C@@H](O)[C@H](N)Cc1ccccc1)C(=O)O,JCK,11220,"inhibitor, single point"
CC(C)C[C@H](NC(=O)[C@@H](O)[C@H](N)Cc1ccccc1)C(=O)O,PC15,11220,"inhibitor, single point"
CC(C)C[C@H](NC(=O)[C@@H](O)[C@H](N)Cc1ccccc1)C(=O)O,CP201,13459,"inhibitor, single point"
O=C(NC1CCN(CCc2c[nH]c3ccccc23)CC1)c1ccccc1,CP286,10000,"inhibitor, single point"
O=C(NC1CCN(CCc2c[nH]c3ccccc23)CC1)c1ccccc1,W2,19011,"inhibitor, single point"
O=C(NC1CCN(CCc2c[nH]c3ccccc23)CC1)c1ccccc1,PC49,10000,"inhibitor, single point"
O=C(NC1CCN(CCc2c[nH]c3ccccc23)CC1)c1ccccc1,AA1029,11220,"inhibitor, single point"
O=C(NC1CCN(CCc2c[nH]c3ccccc23)CC1)c1ccccc1,Dd2,10000,"inhibitor, partial curve, poor fit"
COCCOC(=O)C1=C(C)NC(C)=C(C(=O)OC/C=C/c2ccccc2)C1c1cccc([N+](=O)[O-])c1 (centres undefined),CP297,19011,"inhibitor, single point"
COCCOC(=O)C1=C(C)NC(C)=C(C(=O)OC/C=C/c2ccccc2)C1c1cccc([N+](=O)[O-])c1 (centres undefined),CP237,14125,"inhibitor, single point"
COCCOC(=O)C1=C(C)NC(C)=C(C(=O)OC/C=C/c2ccccc2)C1c1cccc([N+](=O)[O-])c1 (centres undefined),CP191,12589,"inhibitor, single point"
COCCOC(=O)C1=C(C)NC(C)=C(C(=O)OC/C=C/c2ccccc2)C1c1cccc([N+](=O)[O-])c1 (centres undefined),P94_40,17782,"inhibitor, single point"
COCCOC(=O)C1=C(C)NC(C)=C(C(=O)OC/C=C/c2ccccc2)C1c1cccc([N+](=O)[O-])c1 (centres undefined),CP315,19011,"inhibitor, single point"
COCCOC(=O)C1=C(C)NC(C)=C(C(=O)OC/C=C/c2ccccc2)C1c1cccc([N+](=O)[O-])c1 (centres undefined),CP247,10000,"inhibitor, single point"
COCCOC(=O)C1=C(C)NC(C)=C(C(=O)OC/C=C/c2ccccc2)C1c1cccc([N+](=O)[O-])c1 (centres undefined),ATS95,10000,"inhibitor, single point"
COCCOC(=O)C1=C(C)NC(C)=C(C(=O)OC/C=C/c2ccccc2)C1c1cccc([N+](=O)[O-])c1 (centres undefined),TAB109,10000,"inhibitor, single point"
COCCOC(=O)C1=C(C)NC(C)=C(C(=O)OC/C=C/c2ccccc2)C1c1cccc([N+](=O)[O-])c1 (centres undefined),CP252,17782,"inhibitor, single point"
COCCOC(=O)C1=C(C)NC(C)=C(C(=O)OC/C=C/c2ccccc2)C1c1cccc([N+](=O)[O-])c1 (centres undefined),CP268,19011,"inhibitor, single point"
COCCOC(=O)C1=C(C)NC(C)=C(C(=O)OC/C=C/c2ccccc2)C1c1cccc([N+](=O)[O-])c1 (centres undefined),PC26,15101,"inhibitor, single point"
COCCOC(=O)C1=C(C)NC(C)=C(C(=O)OC/C=C/c2ccccc2)C1c1cccc([N+](=O)[O-])c1 (centres undefined),CP238,11220,"inhibitor, single point"
COCCOC(=O)C1=C(C)NC(C)=C(C(=O)OC/C=C/c2ccccc2)C1c1cccc([N+](=O)[O-])c1 (centres undefined),CP325,16944,"inhibitor, single point"
COCCOC(=O)C1=C(C)NC(C)=C(C(=O)OC/C=C/c2ccccc2)C1c1cccc([N+](=O)[O-])c1 (centres undefined),CP211,9528,"inhibitor, partial curve"
COCCOC(=O)C1=C(C)NC(C)=C(C(=O)OC/C=C/c2ccccc2)C1c1cccc([N+](=O)[O-])c1 (centres undefined),CP262,13459,"inhibitor, single point"
COCCOC(=O)C1=C(C)NC(C)=C(C(=O)OC/C=C/c2ccccc2)C1c1cccc([N+](=O)[O-])c1 (centres undefined),CP260,11220,"inhibitor, single point"
COCCOC(=O)C1=C(C)NC(C)=C(C(=O)OC/C=C/c2ccccc2)C1c1cccc([N+](=O)[O-])c1 (centres undefined),CP269,19011,"inhibitor, single point"
COCCOC(=O)C1=C(C)NC(C)=C(C(=O)OC/C=C/c2ccccc2)C1c1cccc([N+](=O)[O-])c1 (centres undefined),CP185,15848,"inhibitor, single point"
COCCOC(=O)C1=C(C)NC(C)=C(C(=O)OC/C=C/c2ccccc2)C1c1cccc([N+](=O)[O-])c1 (centres undefined),CP250,17782,"inhibitor, single point"
COCCOC(=O)C1=C(C)NC(C)=C(C(=O)OC/C=C/c2ccccc2)C1c1cccc([N+](=O)[O-])c1 (centres undefined),ATS189,12589,"inhibitor, single point"
COCCOC(=O)C1=C(C)NC(C)=C(C(=O)OC/C=C/c2ccccc2)C1c1cccc([N+](=O)[O-])c1 (centres undefined),CP265,10000,"inhibitor, single point"
COCCOC(=O)C1=C(C)NC(C)=C(C(=O)OC/C=C/c2ccccc2)C1c1cccc([N+](=O)[O-])c1 (centres undefined),CP329,15101,"inhibitor, single point"
COCCOC(=O)C1=C(C)NC(C)=C(C(=O)OC/C=C/c2ccccc2)C1c1cccc([N+](=O)[O-])c1 (centres undefined),CP305,9528,"inhibitor, single point"
COCCOC(=O)C1=C(C)NC(C)=C(C(=O)OC/C=C/c2ccccc2)C1c1cccc([N+](=O)[O-])c1 (centres undefined),CP286,11220,"inhibitor, single point"
COCCOC(=O)C1=C(C)NC(C)=C(C(=O)OC/C=C/c2ccccc2)C1c1cccc([N+](=O)[O-])c1 (centres undefined),CP201,13459,"inhibitor, single point"
COCCOC(=O)C1=C(C)NC(C)=C(C(=O)OC/C=C/c2ccccc2)C1c1cccc([N+](=O)[O-])c1 (centres undefined),TAB113,14125,"inhibitor, single point"
COCCOC(=O)C1=C(C)NC(C)=C(C(=O)OC/C=C/c2ccccc2)C1c1cccc([N+](=O)[O-])c1 (centres undefined),CP291,11995,"inhibitor, partial curve"
COCCOC(=O)C1=C(C)NC(C)=C(C(=O)OC/C=C/c2ccccc2)C1c1cccc([N+](=O)[O-])c1 (centres undefined),CP217,10000,"inhibitor, single point"
COCCOC(=O)C1=C(C)NC(C)=C(C(=O)OC/C=C/c2ccccc2)C1c1cccc([N+](=O)[O-])c1 (centres undefined),PC15,6310,"inhibitor, partial curve"
COCCOC(=O)C1=C(C)NC(C)=C(C(=O)OC/C=C/c2ccccc2)C1c1cccc([N+](=O)[O-])c1 (centres undefined),CP203,11995,"inhibitor, partial curve, poor fit"
COCCOC(=O)C1=C(C)NC(C)=C(C(=O)OC/C=C/c2ccccc2)C1c1cccc([N+](=O)[O-])c1 (centres undefined),C2A,17782,"inhibitor, single point"
COCCOC(=O)C1=C(C)NC(C)=C(C(=O)OC/C=C/c2ccccc2)C1c1cccc([N+](=O)[O-])c1 (centres undefined),GB4,10690,"inhibitor, partial curve"
COCCOC(=O)C1=C(C)NC(C)=C(C(=O)OC/C=C/c2ccccc2)C1c1cccc([N+](=O)[O-])c1 (centres undefined),CP215,9528,"inhibitor, partial curve"
COCCOC(=O)C1=C(C)NC(C)=C(C(=O)OC/C=C/c2ccccc2)C1c1cccc([N+](=O)[O-])c1 (centres undefined),CP192,13459,"inhibitor, single point"
COCCOC(=O)C1=C(C)NC(C)=C(C(=O)OC/C=C/c2ccccc2)C1c1cccc([N+](=O)[O-])c1 (centres undefined),DIV30,6012,"inhibitor, partial curve, poor fit"
COCCOC(=O)C1=C(C)NC(C)=C(C(=O)OC/C=C/c2ccccc2)C1c1cccc([N+](=O)[O-])c1 (centres undefined),CP194,16944,"inhibitor, single point"

For reference, 6 entries once more:

- O=C(NC1CCN(CCc2c[nH]c3ccccc23)CC1)c1ccccc1 [PC49] | fitted potency 10000 nM (inhibitor, single point)
- O=C(NC1CCN(CCc2c[nH]c3ccccc23)CC1)c1ccccc1 [CP286] | fitted potency 10000 nM (inhibitor, single point)
- COCCOC(=O)C1=C(C)NC(C)=C(C(=O)OC/C=C/c2ccccc2)C1c1cccc([N+](=O)[O-])c1 (centres undefined) [CP297] | fitted potency 19011 nM (inhibitor, single point)
- O=C(NC1CCN(CCc2c[nH]c3ccccc23)CC1)c1ccccc1 [W2] | fitted potency 19011 nM (inhibitor, single point)
- COCCOC(=O)C1=C(C)NC(C)=C(C(=O)OC/C=C/c2ccccc2)C1c1cccc([N+](=O)[O-])c1 (centres undefined) [CP305] | fitted potency 9528 nM (inhibitor, single point)
- COCCOC(=O)C1=C(C)NC(C)=C(C(=O)OC/C=C/c2ccccc2)C1c1cccc([N+](=O)[O-])c1 (centres undefined) [CP291] | fitted potency 11995 nM (inhibitor, partial curve)